From PubChem BioAssay AID743255 (National Center for Advancing Translational Sciences (NCATS), 2014)
In all, about 390,000 compounds went through this assay and about 910 (0.23%) were called active. The shares of active, inactive and inconclusive entries below differ from those in the screen. Calls come from the whole dose curve; as a rule, active = well fitted inhibition curve with a large enough effect; inconclusive = small, poorly fitted or top-dose-only effect; inactive = no such curve, though single readings can be large or run the other way. Potencies beside an inconclusive call are fits to weak or partial responses and may not hold up.

The chains behind the UniProt entries cited, without tags or fusion partners. Where a name states a change or a piece, a line headed by the entry shows the natural chain unless it says otherwise.
UniProt O94782: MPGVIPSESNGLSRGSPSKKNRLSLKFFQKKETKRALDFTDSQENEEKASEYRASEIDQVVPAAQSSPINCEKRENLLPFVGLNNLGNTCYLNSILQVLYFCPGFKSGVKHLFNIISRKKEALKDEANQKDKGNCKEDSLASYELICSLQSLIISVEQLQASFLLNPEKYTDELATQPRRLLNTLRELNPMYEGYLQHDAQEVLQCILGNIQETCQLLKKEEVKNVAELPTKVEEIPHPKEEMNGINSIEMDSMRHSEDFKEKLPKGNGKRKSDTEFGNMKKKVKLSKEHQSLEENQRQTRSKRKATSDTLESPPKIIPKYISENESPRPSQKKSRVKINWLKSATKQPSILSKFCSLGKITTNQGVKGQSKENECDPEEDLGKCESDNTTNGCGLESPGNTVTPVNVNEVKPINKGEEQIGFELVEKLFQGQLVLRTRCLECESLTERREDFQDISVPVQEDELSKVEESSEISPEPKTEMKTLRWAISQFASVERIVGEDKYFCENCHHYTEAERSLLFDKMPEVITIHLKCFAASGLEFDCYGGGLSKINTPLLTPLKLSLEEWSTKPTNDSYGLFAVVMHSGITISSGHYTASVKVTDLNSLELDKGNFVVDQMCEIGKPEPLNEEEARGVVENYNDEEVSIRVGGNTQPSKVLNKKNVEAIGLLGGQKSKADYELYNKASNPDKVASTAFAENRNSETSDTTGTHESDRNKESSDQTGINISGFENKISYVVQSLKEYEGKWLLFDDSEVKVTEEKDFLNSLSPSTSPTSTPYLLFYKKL

Each compound was assayed against Ubiquitin carboxyl-terminal hydrolase 1 (Homo sapiens) (UniProt O94782) (assay: Inhibitors of USP1/UAF1: Primary Screen). Conditions: recombinant USP1/UAF1, Ub-Rhodamine cleavage fluorescence; activity change, negative = inhibition: at 57.1 µM (top of the series).
Method in brief: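 1 nM enzyme complex + cpd, 15 min RT; start with Ub-Rho 150nM final; kinetic fluorescence ex 480/em 540, 6 reads q60 s. Buffer 50mM HEPES pH 7.8, 0.5mM EDTA, 0.1 mg/ml BSA, 1mM TCEP, 0.01% Tween-20.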
% is set by controls: 0 for no effect and ±100 for the full control effect; potency is the fitted concentration of half-maximal effect.
Note: nearly all actives have a fitted effect of over 60% in size.

Row | SMILES | Potency | activity change, negative = inhibition
1 | Cc1ccc2oc(=O)c3cc(C(=O)NCCCN4CCc5ccccc5C4)sc3c2c1 | inconclusive: 17.8 µM [inhibitor, partial curve] | –
2 | CCOc1ccccc1NC(=O)Cn1ncc2c(=O)oc3ccc(C)cc3c21 | inconclusive: 5.62 µM [inhibitor, partial curve] | –
3 | CC(C)c1ccc(OCC(O)CN2CCN(c3ccccc3)CC2)cc1 (configuration not stated) | inconclusive: 31.6 µM [inhibitor, single point] | –
4 | O=C(Nc1cccc2ccccc12)ON=C1CCCCC1 | inconclusive: 14.1 µM [inhibitor, partial curve] | –
5 | CC(C)(C)c1ccc(CN(Cc2ccco2)Cc2nnnn2C2CCCC2)cc1 | inconclusive: 44.7 µM [inhibitor, partial curve, poor fit] | –
6 | Cc1c(Cl)cccc1NC(=O)C1=COCCO1 | inconclusive: 0.708 µM [inhibitor, full curve, poor fit] | –
7 | COc1ccc(OCC(=O)Nc2ccc3c(c2)nc(CCNC(C)=O)n3C)cc1 | inconclusive: 25.1 µM [inhibitor, partial curve] | –
8 | O=C(Nc1cccnc1)c1ccc2nc(-c3ccccc3)c(-c3ccccc3)nc2c1 | – | inactive: -7.4%
9 | COc1cc(OC)cc(-c2cc3nc(C)c(CCC(=O)NCc4ccccc4)c(C)n3n2)c1 | inconclusive: 0.708 µM [inhibitor, full curve, poor fit] | –
10 | Clc1ccc(CSc2nnc(-c3ccncc3)s2)cc1 | inconclusive: 11.2 µM [inhibitor, partial curve] | –
11 | CCCOc1ccc(NC(=O)CC2C(=O)N(c3cccc(OC)c3)C(=O)N2Cc2cccs2)cc1 (configuration not stated) | – | inconclusive: -15.2% [inhibitor]
12 | O=C(NC1CCCCC1NC(=O)c1ccco1)c1ccco1 (configuration not stated) | – | inactive: -12.3%
13 | COc1ccccc1Nc1nc2nonc2nc1N1CCCCC1C (configuration not stated) | inconclusive: 39.8 µM [inhibitor, partial curve, poor fit] | –
14 | CN(C)CCCN(C(=O)c1ccc([N+](=O)[O-])s1)c1nc2cc3c(cc2s1)OCCO3 | inconclusive: 39.8 µM [inhibitor, partial curve, poor fit] | –
15 | CC(C(=O)O)N1C(=O)/C(=C/C=C/c2ccco2)SC1=S (configuration not stated) | inconclusive: 35.5 µM [inhibitor, single point] | –
16 | C(=NOCCc1ccccc1)c1ccccn1 | inconclusive: 44.7 µM [inhibitor, partial curve, poor fit] | –
17 | C[C@H](CO)N1C[C@H](C)[C@H](CN(C)Cc2ccncc2)Oc2ccc(NC(=O)Nc3ccc(C(F)(F)F)cc3)cc2CC1=O | – | inactive: -37.3%
18 | CCN(CC)C(=O)CSc1nc(C)cc(-c2cccs2)c1C#N | inconclusive: 1.12 µM [inhibitor, partial curve] | –
19 | O=C(CCC(=O)N1CC2CCCN2c2ccccc21)NCc1cccc(Cl)c1 (configuration not stated) | inconclusive: 70.8 µM [inhibitor, partial curve, poor fit] | –
20 | C#CCOCCOCCOCCNc1nc(N2CCN(C(=O)C([C@@H](C)O)n3cc([C@@H](N)CCCCN)nn3)CC2)nc(N2CCN(C(=O)[C@H](CC(N)=O)n3cc(C(N)[C@@H](C)CC)nn3)CC2)n1 (some centres not stated) | inconclusive: 50.1 µM [inhibitor, partial curve, poor fit] | –
21 | Cc1sc2nc(SCC(=O)Nc3ccccc3F)[nH]c(=O)c2c1C | inconclusive: 0.447 µM [inhibitor, full curve, poor fit] | –

Row | SMILES | Potency | activity change, negative = inhibition
22 | O=C(O)C1Nc2c(C(=O)N3CCOCC3)cccc2C2C=CCC12 (configuration not stated) | inconclusive: 31.6 µM [inhibitor, partial curve] | –
23 | CN(C)c1ccc(/C=C/C(=O)c2ccc3c(c2)OCO3)cc1 | active: 25.1 µM | –
24 | COc1ccc(-c2cc(=O)oc3cc(OCC(=O)N4C[C@H]5C[C@@H](C4)c4cccc(=O)n4C5)ccc23)cc1 | inconclusive: 44.7 µM [inhibitor, partial curve] | –
25 | NC(N)=NC(N)=Nc1cccc2ccccc12 | inconclusive: 7.08 µM [inhibitor, single point] | –
26 | O=C1Nc2c(Br)cccc2C1=O | inconclusive: 50.1 µM [inhibitor, partial curve, poor fit] | –
27 | CN1CCc2c(sc3nc(SCC(=O)N4CCOCC4)n(-c4ccc(Cl)cc4)c(=O)c23)C1 | inconclusive: 70.8 µM [inhibitor, partial curve, poor fit] | –
28 | O=C1NC(=Nc2ccc3ccccc3c2)S/C1=C/c1ccco1 | – | inactive: -11.7%
29 | CCOC(=O)c1sc2nc(C)nc(NCCc3ccc(S(N)(=O)=O)cc3)c2c1C | inconclusive: 31.6 µM [inhibitor, single point] | –
30 | O=C(COc1ncnc2cc(Cl)ccc12)c1ccc2c(c1)OCCO2 | – | inactive: -5.42%
31 | CC(C)CNS(=O)(=O)c1ccc(CCC(=O)NC2CCCCC2)cc1 | inconclusive: 0.794 µM [inhibitor, full curve] | –
32 | CCOC(=O)c1cc2c(c(CCO)n1)[C@H](CCO)N(S(=O)(=O)C(C)(C)C)C2 | inconclusive: 100 µM [inhibitor, partial curve, poor fit] | –
33 | Cc1ccc(C2=C(O)C(=O)C(c3ccc(C)cc3)=C(O)C2=O)cc1 | – | inactive: -9.45%
34 | C[n+]1cccc(C(=O)N/N=C/c2ccc3c(c2)OCO3)c1 | – | inconclusive: -9.61% [inhibitor]
35 | COc1cccc(CN2CCNC(=O)C2CC(=O)N2CCOc3ccccc3C2)c1OC (configuration not stated) | inconclusive: 35.5 µM [inhibitor, partial curve, poor fit] | –
36 | O=C(NCCC1=CCCCC1)c1ccc2c(c1)N(Cc1ccccc1F)C(=O)c1ccccc1S2=O (configuration not stated) | – | inactive: -25.2%
37 | CCc1cccc(-n2c(=O)c3cccnc3n2CC(=O)NCc2ccccc2)c1 | inconclusive: 50.1 µM [inhibitor, partial curve, poor fit] | –
38 | CN1N=C(N)c2cn(C3OC(COP(=O)(O)O)C(O)C3O)c3ncnc1c23 (configuration not stated) | inconclusive: 31.6 µM [inhibitor, partial curve] | –
39 | COc1cc2cc(CNc3ccccc3)c(=O)n(CC(=O)Nc3ccccc3)c2cc1OC | inconclusive: 44.7 µM [inhibitor, partial curve, poor fit] | –
40 | CN1CCN(C(=O)CSc2nc(-c3ccncc3)ccc2C#N)CC1 | – | inactive: -17.8%
41 | CCOc1ccc(/C=C/C(=O)Nc2sc3c(c2C(=O)OC)C(C(=O)OC)CC3)cc1 (configuration not stated) | inconclusive: 50.1 µM [inhibitor, partial curve, poor fit] | –
42 | Cc1ccc(-n2c(SCC(=O)N3CCCc4ccccc43)nnc2-c2cccnc2)c(C)c1 | inconclusive: 2.82 µM [inhibitor, full curve, poor fit] | –

A draw from above in order of SMILES length, smallest number first.
Row | SMILES | Potency | activity change, negative = inhibition
29 | CCOC(=O)c1sc2nc(C)nc(NCCc3ccc(S(N)(=O)=O)cc3)c2c1C | inconclusive: 31.6 µM [inhibitor, single point] | –
41 | CCOc1ccc(/C=C/C(=O)Nc2sc3c(c2C(=O)OC)C(C(=O)OC)CC3)cc1 (configuration not stated) | inconclusive: 50.1 µM [inhibitor, partial curve, poor fit] | –
27 | CN1CCc2c(sc3nc(SCC(=O)N4CCOCC4)n(-c4ccc(Cl)cc4)c(=O)c23)C1 | inconclusive: 70.8 µM [inhibitor, partial curve, poor fit] | –

(list continues)

Row | SMILES | Potency | activity change, negative = inhibition
43 | COc1ccc(-n2c(O)c(/C=N/n3cnnc3)c3ccccc3c2=O)cc1 | inconclusive: 35.5 µM [inhibitor, partial curve] | –
44 | Cc1ccc(-n2ncc(C(=O)NCCc3ccccc3)c2C2CCN(C(=O)OC(C)(C)C)CC2)c(C)c1 | – | inactive: -35.4%
45 | O=C1c2ccccc2-c2nc3ccccc3nc21 | inconclusive: 39.8 µM [inhibitor, partial curve, poor fit] | –
46 | O=C1c2ccccc2-c2nnc(-c3ccc(F)cc3)cc21 | – | inactive: -25.3%
47 | CCN(CC)c1nc2c(-c3cccc(Br)c3)nnn2c2ccccc12 | inconclusive: 2.82 µM [inhibitor, full curve, poor fit] | –
48 | N#Cc1c(N2CCCC(O)C2)nc(N)c2c(N)nc3c(c12)CC(=O)N3C12CC3CC(CC(C3)C1)C2 (configuration not stated) | inconclusive: 6.31 µM [inhibitor, full curve] | –
49 | COc1ccc(-c2nc3ccccc3n3c(-c4cccc(C)c4)c4c(=O)n(C)c(=O)n(C)c4c23)cc1 | inconclusive: 8.91 µM [inhibitor, full curve, poor fit] | –
50 | O=C(OCc1nnc(-c2ccc(Cl)cc2)o1)C12CC3CC(CC(O)(C3)C1)C2 | – | inactive: -16.1%
51 | O=C(Cc1ccccc1)Nc1sc2c(c1C(=O)Nc1ccccc1)CCCCC2 | inconclusive: 17.8 µM [inhibitor, partial curve] | –
52 | COCCCn1c(=N)c(C(=O)NCC2CCCO2)cc2c(=O)n3cc(C)ccc3nc21 (configuration not stated) | inconclusive: 0.112 µM [inhibitor, full curve] | –
53 | Cc1ccc(NC(=O)c2ccc3c(c2)C(=O)N(Cc2cccnc2)C3=O)c(C)c1 | inconclusive: 0.794 µM [inhibitor, full curve, poor fit] | –
54 | Cc1cccc(N=Nc2c(C)nn(-c3ccccc3)c2N)c1C | inconclusive: 31.6 µM [inhibitor, partial curve] | –
55 | CCCn1ccc2c(OCC(=O)Nc3cc(C)ccc3C)cccc2c1=O | inconclusive: 79.4 µM [inhibitor, partial curve, poor fit] | –
56 | CCn1c(SCCOc2ccc(Cl)cc2)nnc1-c1cccs1 | inconclusive: 50.1 µM [inhibitor, partial curve, poor fit] | –
57 | Cc1ccc2nc(NS(C)(=O)=O)sc2c1 | – | inactive: -21.9%
58 | C[C@H](CO)N1C[C@H](C)[C@@H](CN(C)Cc2ccncc2)Oc2ccc(NC(=O)Cn3cnnn3)cc2C1=O | inconclusive: 5.01 µM [inhibitor, single point] | –
59 | Nc1c(C(=O)NCc2ccc(Cl)cc2Cl)nnn1Cc1ccc(Br)cc1 | inconclusive: 39.8 µM [inhibitor, partial curve] | –
60 | COc1cccc(CNCCSc2nnnn2C)c1OCc1ccccc1 | inconclusive: 44.7 µM [inhibitor, single point] | –
61 | COc1cccc(-c2cn3c(n2)sc2cc(C(=O)NCCCc4ccccc4)ccc23)c1 | inconclusive: 4.47 µM [inhibitor, partial curve] | –
62 | CN(CC(=O)Nc1cccc(F)c1)C(=O)CSc1ccccc1 | – | inactive: -5.5%
